Measured values: patent US20100179122A1 (priority 2005, published 2010)
Some of these results come from one statement about several compounds together. For at least one compound, name, drawing or mass did not settle the structure.

Experiments:
T-lymphoid cells = assay: Cytotoxicity by microscopic examination of the cells in the spread assay; assay type: cell-based; conditions: at the compound's IC95 concentration
[1] = tested on: acute HIV infection of T-lymphoid cells; assay: Assay for inhibition of HIV replication (spread assay); assay type: cell-based
Protocol: An assay for the inhibition of acute HIV infection of T-lymphoid cells (alternatively referred to herein as the “spread assay”) was conducted in accordance with Vacca, J. P. et al., Proc. Natl. Acad. Sci. USA 1994, 91: 4096. […] The compounds set forth in the other Examples were not tested in the spread assay.

Row | SMILES | cytotoxicity at IC95 concentration (T-lymphoid cells) | IC95, spread assay [1]
1 | O=C(CNCc1ccco1)Nc1[nH]c2ccc(Cl)cc2c1S(=O)(=O)c1ccccc1 [Example 30, N^1-[5-chloro-3-(phenylsulfonyl)-1H-indol-2-yl]-N′~2~-(2-furylmethyl)glycinamide] | no cytotoxicity | less than 1 micromolar
2 | Cn1ccnc1CNCC(=O)Nc1[nH]c2ccc(Cl)cc2c1S(=O)(=O)c1ccccc1 [Example 42, N^1-[5-chloro-3-(phenylsulfonyl)-1H-indol-2-yl]-N^2-[(1-methyl-1H-imidazol-2-yl)methyl]glycinamide] | no cytotoxicity | 
3 | Cc1cccc(CNC(=O)Nc2[nH]c3ccc(Cl)cc3c2S(=O)(=O)c2ccccc2)c1 [Example 43, N-[5-chloro-3-(phenylsulfonyl)-1H-indol-2-yl]-N′-(3-methylbenzyl)urea] | no cytotoxicity | 
4 | O=C(Nc1[nH]c2ccc(Cl)cc2c1S(=O)(=O)c1ccccc1)NC1CCCC1 [Example 44, N-[5-chloro-3-(phenylsulfonyl)-1H-indol-2-yl]-N′-cyclopentylurea] | no cytotoxicity | 
5 | CC1(CNCC(=O)Nc2[nH]c3ccc(Cl)cc3c2S(=O)(=O)c2ccccc2)COC1 [Example 45, N^1-[5-chloro-3-(phenylsulfonyl)-1H-indol-2-yl]-N^2-[(3-methyloxetan-3-yl)methyl]glycinamide] | no cytotoxicity | 
6 | CCC(C)NC(=O)Nc1[nH]c2ccc(Cl)cc2c1S(=O)(=O)c1ccccc1 (stereo not drawn) [Example 46, N-(sec-butyl)-N′-[5-chloro-3-(phenylsulfonyl)-1H-indol-2-yl]urea] | no cytotoxicity | 
7 | O=C(Nc1[nH]c2ccc(Cl)cc2c1S(=O)(=O)c1ccccc1)C1CCCC1 [Example 47, N-[5-chloro-3-(phenylsulfonyl)-1H-indol-2-yl]cyclopentanecarboxamide] | no cytotoxicity | 
8 | CCCCNC(=O)Nc1[nH]c2ccc(Cl)cc2c1S(=O)(=O)c1ccccc1 [Example 48, N-butyl-N′-[5-chloro-3-(phenylsulfonyl)-1H-indol-2-yl]urea] | no cytotoxicity | 
9 | O=C(NCCc1ccccc1)Nc1[nH]c2ccc(Cl)cc2c1S(=O)(=O)c1ccccc1 [Example 49, N-[5-chloro-3-(phenylsulfonyl)-1H-indol-2-yl]-N′-(2-phenylethyl)urea] | no cytotoxicity | 
10 | O=C(NCc1cccc(F)c1)Nc1[nH]c2ccc(Cl)cc2c1S(=O)(=O)c1ccccc1 [Example 50, N-[5-chloro-3-(phenylsulfonyl)-1H-indol-2-yl]-N′-(3-fluorobenzyl)urea] | no cytotoxicity | 
11 | COc1cccc(CNCC(=O)Nc2[nH]c3ccc(Cl)cc3c2S(=O)(=O)c2ccccc2)c1 [Example 51, N^1-[5-chloro-3-(phenylsulfonyl)-1H-indol-2-yl]-N^2-(3-methoxybenzyl)glycinamide] | no cytotoxicity | 
12 | O=C(NCc1ccc(F)cc1)Nc1[nH]c2ccc(Cl)cc2c1S(=O)(=O)c1ccccc1 [Example 52, N-[5-chloro-3-(phenylsulfonyl)-1H-indol-2-yl]-N′-(4-fluorobenzyl)urea] | no cytotoxicity | 
13 | CS(=O)(=O)N1CCN(CC(=O)Nc2[nH]c3ccc(Cl)cc3c2S(=O)(=O)c2ccccc2)CC1 [Example 53, N-[5-chloro-3-(phenylsulfonyl)-1H-indol-2-yl]-2-[4-(methylsulfonyl)piperazin-1-yl]acetamide] | no cytotoxicity | 
14 | O=C(CN1CCC(c2ccccn2)C1)Nc1[nH]c2ccc(Cl)cc2c1S(=O)(=O)c1ccccc1 (stereo not drawn) [Example 56, N-[5-chloro-3-(phenylsulfonyl)-1H-indol-2-yl]-2-(3-pyridin-2-ylpyrrolidin-1-yl)acetamide] | no cytotoxicity | 
15 | O=C(Nc1[nH]c2ccc(Cl)cc2c1S(=O)(=O)c1ccccc1)NC1CCCCC1 [Example 57, N-[5-chloro-3-(phenylsulfonyl)-1H-indol-2-yl]-N′-cyclohexylurea] | no cytotoxicity | 
16 | O=C(Nc1[nH]c2ccc(Cl)cc2c1S(=O)(=O)c1ccccc1)NC1CC1c1ccccc1 (stereo not drawn) [Example 58, N-[5-chloro-3-(phenylsulfonyl)-1H-indol-2-yl]-N′-(2-phenylcyclopropyl)urea] | no cytotoxicity | 

Row | SMILES | cytotoxicity at IC95 concentration (T-lymphoid cells) | IC95, spread assay [1]
17 | CC(NCC(=O)Nc1[nH]c2ccc(Cl)cc2c1S(=O)(=O)c1ccccc1)c1ccccc1 (stereo not drawn) [Example 59, 2-{[5-chloro-3-(phenylsulfonyl)-1H-indol-2-yl]amino}-2-oxo-N-(1-phenylethyl)ethanamine] | no cytotoxicity | 
18 | O=C(Nc1[nH]c2ccc(Cl)cc2c1S(=O)(=O)c1ccccc1)C1CCCCC1 [Example 60, N-[5-chloro-3-(phenylsulfonyl)-1H-indol-2-yl]cyclohexanecarboxamide] | no cytotoxicity | 
19 | CN1CCN(CC(=O)Nc2[nH]c3ccc(Cl)cc3c2S(=O)(=O)c2ccccc2)CC1 [Example 61, N-[5-chloro-3-(phenylsulfonyl)-1H-indol-2-yl]-2-(4-methylpiperazin-1-yl)acetamide] | no cytotoxicity | 
20 | CC(C)NC(=O)Nc1[nH]c2ccc(Cl)cc2c1S(=O)(=O)c1ccccc1 [Example 62, N-[5-chloro-3-(phenylsulfonyl)-1H-indol-2-yl]-N′-isopropylurea] | no cytotoxicity | 
21 | O=C(COc1ccccc1)Nc1[nH]c2ccc(Cl)cc2c1S(=O)(=O)c1ccccc1 [Example 65, N-[5-chloro-3-(phenylsulfonyl)-1H-indol-2-yl]-2-phenoxyacetamide] | no cytotoxicity | 
22 | O=C(Nc1cc(F)cc(F)c1)Nc1[nH]c2ccc(Cl)cc2c1S(=O)(=O)c1ccccc1 [Example 66, N-[5-chloro-3-(phenylsulfonyl)-1H-indol-2-yl]-N′-(3,5-difluorophenyl)urea] | no cytotoxicity | 
23 | O=C(Nc1cccc(C(F)(F)F)c1)Nc1[nH]c2ccc(Cl)cc2c1S(=O)(=O)c1ccccc1 [Example 68, N-[5-chloro-3-(phenylsulfonyl)-1H-indol-2-yl]-N′-[3-(trifluoromethyl)phenyl]urea] | no cytotoxicity | 
24 | O=C(NCc1cccc(Cl)c1)Nc1[nH]c2ccc(Br)cc2c1S(=O)(=O)N1CCCC1 [Example 71, N-[5-bromo-3-(pyrrolidin-1-ylsulfonyl)-1H-indol-2-yl]-N′-(3-chlorobenzyl)urea] | no cytotoxicity | 
25 | O=C(NCc1ccccc1)Nc1[nH]c2ccc(Br)cc2c1S(=O)(=O)N1CCCC1 [Example 72, N-benzyl-N′-[5-bromo-3-(pyrrolidin-1-ylsulfonyl)-1H-indol-2-yl]urea] | no cytotoxicity | 
26 | O=C(Nc1ccccc1)Nc1[nH]c2ccc(Br)cc2c1S(=O)(=O)N1CCCC1 [Example 73, N-[5-bromo-3-(pyrrolidin-1-ylsulfonyl)-1H-indo1-2-yl]-N′-phenylurea] | no cytotoxicity | 
27 | O=C(Nc1ccccn1)Nc1[nH]c2ccc(Br)cc2c1S(=O)(=O)N1CCCC1 [Example 75, N-[5-bromo-3-(pyrrolidin-1-ylsulfonyl)-1H-indol-2-yl]-N′-pyridin-2-ylurea] | no cytotoxicity | 
28 | O=C(Nc1[nH]c2ccc(Br)cc2c1S(=O)(=O)N1CCCC1)Nc1c(F)cccc1F [Example 77, N-[5-bromo-3-(pyrrolidin-1-ylsulfonyl)-1H-indol-2-yl]-N′-(2,6-difluorophenyl)urea] | no cytotoxicity | 
29 | O=C(NCc1ccncc1)Nc1[nH]c2ccc(Br)cc2c1S(=O)(=O)N1CCCC1 [Example 86, N-[5-bromo-3-(pyrrolidin-1-ylsulfonyl)-1H-indol-2-yl]-N′-(pyridin-4-ylmethyl)urea] | no cytotoxicity | 
30 | NC(=O)Nc1[nH]c2ccc(Br)cc2c1S(=O)(=O)N1CCCC1 [Example 89, N-[5-bromo-3-(pyrrolidin-1-ylsulfonyl)-1H-indol-2-yl]urea] | no cytotoxicity | 
31 | O=C(NCc1c(F)cccc1Cl)Nc1[nH]c2ccc(Br)cc2c1S(=O)(=O)N1CCCC1 [Example 95, N-[5-bromo-3-(pyrrolidin-1-ylsulfonyl)-1H-indol-2-yl]-N′-(2-chloro-6-fluorobenzyl)urea] | no cytotoxicity | 
32 | O=C(Nc1[nH]c2ccc(Br)cc2c1S(=O)(=O)N1CCCC1)N1CCC1 [Example 96, N-[5-bromo-3-(pyrrolidin-1-ylsulfonyl)-1H-indol-2-yl]azetidine-1-carboxamide] | no cytotoxicity | 
